Test results: patent US20240316000A1, “METHODS OF TREATMENT” (DIFFUSION PHARMACEUTICALS LLC, priority 2021, published 2024)
At least one read-out could not be matched to a standard name with certainty.

Test: Solubility of TSC in water with gamma-cyclodextrin
Format: physicochemical

For `CC(/C=C/C=C(\C)C(=O)[O-])=C\C=C\C=C(C)\C=C\C=C(/C)C(=O)O.[Na+]` [TSC, trans sodium crocetinate], the “Increase of the solubility of TSC in water” value was 3-7 times.
